# Data reported in the supplement of paper PMC10849652.
# Chains of the proteins cited; added tags and fusions are not shown. Lines headed by an entry give the natural chain unless they say otherwise; changes in a name come on top.
# UniProt Q9Y6M0: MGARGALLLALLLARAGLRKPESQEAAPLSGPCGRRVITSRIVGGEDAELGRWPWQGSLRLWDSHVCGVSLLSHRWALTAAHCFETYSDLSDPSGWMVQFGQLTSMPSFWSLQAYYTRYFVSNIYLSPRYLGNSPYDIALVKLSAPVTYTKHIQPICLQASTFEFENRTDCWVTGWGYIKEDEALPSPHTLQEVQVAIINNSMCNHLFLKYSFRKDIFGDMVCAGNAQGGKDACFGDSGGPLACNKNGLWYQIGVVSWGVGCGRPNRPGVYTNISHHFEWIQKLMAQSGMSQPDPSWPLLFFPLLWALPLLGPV
# UniProt P49720: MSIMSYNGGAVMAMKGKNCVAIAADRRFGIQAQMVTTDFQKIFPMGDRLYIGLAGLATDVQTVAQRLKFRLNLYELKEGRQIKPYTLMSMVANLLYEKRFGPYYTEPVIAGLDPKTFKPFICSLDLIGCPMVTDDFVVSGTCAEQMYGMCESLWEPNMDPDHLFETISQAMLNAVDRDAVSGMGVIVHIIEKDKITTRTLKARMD
# UniProt Q15257: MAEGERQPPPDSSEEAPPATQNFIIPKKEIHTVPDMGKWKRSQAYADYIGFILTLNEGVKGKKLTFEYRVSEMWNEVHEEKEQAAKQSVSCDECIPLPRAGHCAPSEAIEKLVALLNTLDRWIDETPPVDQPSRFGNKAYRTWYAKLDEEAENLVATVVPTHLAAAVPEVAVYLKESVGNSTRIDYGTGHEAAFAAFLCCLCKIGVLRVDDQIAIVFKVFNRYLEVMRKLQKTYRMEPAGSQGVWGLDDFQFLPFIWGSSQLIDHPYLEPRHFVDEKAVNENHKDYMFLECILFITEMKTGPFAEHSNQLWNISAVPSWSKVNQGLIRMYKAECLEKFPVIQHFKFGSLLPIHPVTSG
# UniProt P60484: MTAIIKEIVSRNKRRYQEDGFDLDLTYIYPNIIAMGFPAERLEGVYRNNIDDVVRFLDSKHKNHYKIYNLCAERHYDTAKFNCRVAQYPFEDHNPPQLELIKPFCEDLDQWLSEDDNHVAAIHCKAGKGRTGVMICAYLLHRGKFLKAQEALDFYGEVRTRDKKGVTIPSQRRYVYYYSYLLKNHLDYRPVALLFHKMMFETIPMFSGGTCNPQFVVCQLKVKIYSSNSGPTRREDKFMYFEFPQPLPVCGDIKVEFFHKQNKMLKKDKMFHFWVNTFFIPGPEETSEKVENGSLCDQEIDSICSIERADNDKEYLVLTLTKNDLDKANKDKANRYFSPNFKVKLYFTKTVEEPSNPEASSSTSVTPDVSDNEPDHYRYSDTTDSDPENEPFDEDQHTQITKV
# UniProt Q16651: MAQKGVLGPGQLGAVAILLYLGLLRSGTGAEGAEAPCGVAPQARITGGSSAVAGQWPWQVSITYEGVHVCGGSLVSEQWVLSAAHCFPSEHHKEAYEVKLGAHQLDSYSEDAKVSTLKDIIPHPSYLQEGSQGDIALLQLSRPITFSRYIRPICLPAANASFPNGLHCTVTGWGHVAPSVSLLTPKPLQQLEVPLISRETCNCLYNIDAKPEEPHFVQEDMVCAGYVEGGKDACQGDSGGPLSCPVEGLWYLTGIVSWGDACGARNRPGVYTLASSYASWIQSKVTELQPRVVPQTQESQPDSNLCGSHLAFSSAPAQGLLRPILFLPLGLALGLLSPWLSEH
# UniProt Q9BRX8: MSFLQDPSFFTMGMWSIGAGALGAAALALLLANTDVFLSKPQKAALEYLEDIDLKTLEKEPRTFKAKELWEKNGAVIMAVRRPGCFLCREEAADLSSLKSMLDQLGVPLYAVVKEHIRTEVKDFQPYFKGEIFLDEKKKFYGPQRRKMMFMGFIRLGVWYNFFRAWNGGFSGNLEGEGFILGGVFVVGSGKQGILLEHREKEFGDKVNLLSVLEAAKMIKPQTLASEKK
# UniProt P20962: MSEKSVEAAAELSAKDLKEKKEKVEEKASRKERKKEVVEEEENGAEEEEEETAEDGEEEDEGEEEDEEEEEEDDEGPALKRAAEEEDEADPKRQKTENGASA
# UniProt Q16378: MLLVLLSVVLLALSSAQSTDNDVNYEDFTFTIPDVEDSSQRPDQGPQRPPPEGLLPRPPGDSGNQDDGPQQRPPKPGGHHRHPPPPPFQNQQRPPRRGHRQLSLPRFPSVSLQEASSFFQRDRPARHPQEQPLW
# UniProt Q9ULL5: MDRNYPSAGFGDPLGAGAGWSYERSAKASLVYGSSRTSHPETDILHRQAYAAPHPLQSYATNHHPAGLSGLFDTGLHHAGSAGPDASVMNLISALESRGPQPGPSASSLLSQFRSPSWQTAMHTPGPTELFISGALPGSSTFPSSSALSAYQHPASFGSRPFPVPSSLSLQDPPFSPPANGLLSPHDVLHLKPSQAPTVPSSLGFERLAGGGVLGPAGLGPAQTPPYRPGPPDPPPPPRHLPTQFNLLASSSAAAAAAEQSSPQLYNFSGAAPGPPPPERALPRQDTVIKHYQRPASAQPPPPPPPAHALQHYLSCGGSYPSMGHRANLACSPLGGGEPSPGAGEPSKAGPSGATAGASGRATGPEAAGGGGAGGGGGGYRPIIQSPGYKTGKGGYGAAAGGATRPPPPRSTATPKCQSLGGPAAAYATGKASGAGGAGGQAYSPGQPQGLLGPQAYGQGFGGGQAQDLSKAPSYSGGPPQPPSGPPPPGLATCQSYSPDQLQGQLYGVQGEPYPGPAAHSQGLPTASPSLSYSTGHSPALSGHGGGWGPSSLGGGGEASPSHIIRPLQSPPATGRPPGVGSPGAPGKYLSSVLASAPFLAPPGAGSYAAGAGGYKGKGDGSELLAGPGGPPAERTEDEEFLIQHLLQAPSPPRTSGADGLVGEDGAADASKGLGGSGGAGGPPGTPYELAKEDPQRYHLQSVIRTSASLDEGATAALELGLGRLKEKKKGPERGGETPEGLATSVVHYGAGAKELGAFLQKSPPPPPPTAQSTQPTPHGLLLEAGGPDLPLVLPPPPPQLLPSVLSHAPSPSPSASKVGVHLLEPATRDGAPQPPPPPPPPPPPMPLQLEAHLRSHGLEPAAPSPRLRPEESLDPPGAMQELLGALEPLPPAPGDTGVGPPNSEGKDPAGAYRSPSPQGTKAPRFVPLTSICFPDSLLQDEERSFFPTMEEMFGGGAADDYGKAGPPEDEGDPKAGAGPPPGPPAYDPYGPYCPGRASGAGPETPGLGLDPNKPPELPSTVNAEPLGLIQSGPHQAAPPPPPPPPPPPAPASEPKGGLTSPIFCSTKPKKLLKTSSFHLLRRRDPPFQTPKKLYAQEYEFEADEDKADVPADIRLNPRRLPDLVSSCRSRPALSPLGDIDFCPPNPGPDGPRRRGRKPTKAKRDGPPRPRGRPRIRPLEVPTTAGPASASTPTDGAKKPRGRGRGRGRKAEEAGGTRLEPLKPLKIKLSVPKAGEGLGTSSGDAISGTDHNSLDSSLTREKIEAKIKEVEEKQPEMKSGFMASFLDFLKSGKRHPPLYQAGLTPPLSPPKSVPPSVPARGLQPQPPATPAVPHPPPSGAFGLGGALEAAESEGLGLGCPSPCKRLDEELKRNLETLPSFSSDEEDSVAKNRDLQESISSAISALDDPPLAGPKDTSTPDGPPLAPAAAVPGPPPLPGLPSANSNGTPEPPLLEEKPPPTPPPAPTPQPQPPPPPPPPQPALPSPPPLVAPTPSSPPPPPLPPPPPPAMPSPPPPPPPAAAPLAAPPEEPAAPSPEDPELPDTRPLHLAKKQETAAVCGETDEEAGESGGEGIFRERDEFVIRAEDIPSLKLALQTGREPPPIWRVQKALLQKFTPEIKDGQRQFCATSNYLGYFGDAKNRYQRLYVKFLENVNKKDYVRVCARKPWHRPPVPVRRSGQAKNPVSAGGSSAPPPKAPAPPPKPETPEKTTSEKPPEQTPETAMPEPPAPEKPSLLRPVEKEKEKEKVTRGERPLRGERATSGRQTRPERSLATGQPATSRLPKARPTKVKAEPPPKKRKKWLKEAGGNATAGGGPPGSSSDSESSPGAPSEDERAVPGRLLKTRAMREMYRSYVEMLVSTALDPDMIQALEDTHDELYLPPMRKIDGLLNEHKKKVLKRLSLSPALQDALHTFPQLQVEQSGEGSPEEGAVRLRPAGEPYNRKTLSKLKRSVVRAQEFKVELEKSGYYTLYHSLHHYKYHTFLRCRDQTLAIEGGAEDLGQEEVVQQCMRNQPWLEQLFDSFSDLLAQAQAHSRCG
# UniProt Q5THK1: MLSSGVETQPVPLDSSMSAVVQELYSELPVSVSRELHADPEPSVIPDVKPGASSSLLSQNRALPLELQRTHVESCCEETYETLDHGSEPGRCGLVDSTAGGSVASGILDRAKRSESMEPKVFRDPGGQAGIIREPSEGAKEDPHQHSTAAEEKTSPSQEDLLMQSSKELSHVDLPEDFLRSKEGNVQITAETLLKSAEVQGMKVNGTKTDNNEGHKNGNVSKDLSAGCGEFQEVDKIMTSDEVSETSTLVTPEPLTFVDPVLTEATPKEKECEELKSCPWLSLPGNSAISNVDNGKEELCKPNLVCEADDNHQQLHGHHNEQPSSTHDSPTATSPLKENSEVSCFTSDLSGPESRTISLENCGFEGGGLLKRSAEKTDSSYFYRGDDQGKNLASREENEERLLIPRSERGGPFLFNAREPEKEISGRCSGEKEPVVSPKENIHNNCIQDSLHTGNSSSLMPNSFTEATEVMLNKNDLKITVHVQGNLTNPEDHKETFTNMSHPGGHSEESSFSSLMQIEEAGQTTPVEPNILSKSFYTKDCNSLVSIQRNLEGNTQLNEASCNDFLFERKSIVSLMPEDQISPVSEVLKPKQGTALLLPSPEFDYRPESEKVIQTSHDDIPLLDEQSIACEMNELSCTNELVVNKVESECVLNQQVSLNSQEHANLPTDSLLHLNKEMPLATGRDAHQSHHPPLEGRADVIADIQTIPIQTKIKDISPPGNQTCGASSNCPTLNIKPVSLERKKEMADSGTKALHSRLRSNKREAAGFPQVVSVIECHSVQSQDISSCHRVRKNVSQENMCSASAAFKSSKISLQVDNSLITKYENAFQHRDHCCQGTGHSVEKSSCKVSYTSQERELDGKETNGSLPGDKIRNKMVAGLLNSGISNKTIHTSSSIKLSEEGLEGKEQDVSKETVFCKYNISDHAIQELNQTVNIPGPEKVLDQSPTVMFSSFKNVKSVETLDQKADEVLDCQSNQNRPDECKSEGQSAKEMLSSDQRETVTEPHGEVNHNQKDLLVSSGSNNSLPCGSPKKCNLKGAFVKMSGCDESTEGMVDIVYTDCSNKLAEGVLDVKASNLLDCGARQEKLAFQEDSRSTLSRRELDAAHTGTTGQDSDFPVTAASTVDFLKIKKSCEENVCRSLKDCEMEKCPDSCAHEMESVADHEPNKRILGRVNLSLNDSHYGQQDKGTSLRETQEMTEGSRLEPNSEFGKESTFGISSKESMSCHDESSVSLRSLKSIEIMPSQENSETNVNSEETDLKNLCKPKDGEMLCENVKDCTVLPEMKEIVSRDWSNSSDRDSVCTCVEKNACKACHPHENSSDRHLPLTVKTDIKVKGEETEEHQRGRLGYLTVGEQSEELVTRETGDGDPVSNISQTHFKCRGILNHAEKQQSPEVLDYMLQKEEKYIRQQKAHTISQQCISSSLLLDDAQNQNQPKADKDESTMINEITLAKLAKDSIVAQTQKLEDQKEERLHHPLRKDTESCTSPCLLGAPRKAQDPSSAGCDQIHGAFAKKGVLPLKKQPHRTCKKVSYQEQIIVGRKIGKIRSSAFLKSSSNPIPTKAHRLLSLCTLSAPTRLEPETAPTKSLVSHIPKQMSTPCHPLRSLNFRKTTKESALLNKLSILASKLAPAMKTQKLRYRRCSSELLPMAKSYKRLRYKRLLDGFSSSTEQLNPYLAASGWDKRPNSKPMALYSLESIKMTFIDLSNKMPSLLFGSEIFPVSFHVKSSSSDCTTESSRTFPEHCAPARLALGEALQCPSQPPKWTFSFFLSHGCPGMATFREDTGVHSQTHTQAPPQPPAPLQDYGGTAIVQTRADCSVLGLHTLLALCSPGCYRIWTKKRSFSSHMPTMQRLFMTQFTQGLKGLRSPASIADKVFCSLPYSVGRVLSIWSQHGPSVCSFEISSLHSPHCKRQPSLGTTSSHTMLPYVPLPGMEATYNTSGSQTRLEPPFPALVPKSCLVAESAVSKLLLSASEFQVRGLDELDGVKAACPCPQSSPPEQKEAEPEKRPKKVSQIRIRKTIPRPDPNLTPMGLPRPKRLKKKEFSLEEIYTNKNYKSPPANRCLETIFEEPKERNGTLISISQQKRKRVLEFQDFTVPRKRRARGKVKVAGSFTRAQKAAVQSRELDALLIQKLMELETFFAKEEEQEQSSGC
# UniProt P28062: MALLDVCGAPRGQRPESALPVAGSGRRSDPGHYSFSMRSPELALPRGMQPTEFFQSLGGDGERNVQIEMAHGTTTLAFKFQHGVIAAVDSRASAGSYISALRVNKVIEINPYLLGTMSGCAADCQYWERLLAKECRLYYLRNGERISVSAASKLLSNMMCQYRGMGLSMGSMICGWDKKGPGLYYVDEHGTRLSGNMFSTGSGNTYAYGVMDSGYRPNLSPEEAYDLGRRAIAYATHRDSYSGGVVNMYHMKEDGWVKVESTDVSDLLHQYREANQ
# This is one part of the list.
# Compound: CN1CCc2c(c3ccccc3n2Cc2ccc(C(=O)NO)cc2)C1 [Tubastatin A]
# Experiment: log2 fold change, soluble protein after heating vs DMSO (PISA); higher = thermal stabilisation; K562 lysate, 10 uM; active = over 0.2 and 3.5 SD of the protein, either way, in both replicates (recomputed)
# In short: (§1)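 Pellets of K562 cells were dounce-homogenised in PBS pH 7.4 with 1 mM MgCl2, and the crude extract was held at 1 mg/mL protein for a 30 min treatment with 10 μM compound. Aliquots were heated for 3 min over 48°C-58°C and pooled before NP-40 was added to 0.5% at 4°C. The supernatant from 21,000xg for 90 min was quantified by TMTpro 16plex LC-MS/MS with channel sums equalised. Values are reported from duplicates as log-two fold change in thermal stability relative to solvent controls.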
row,Target,log2 fold change
1,PTRH1 (UniProt Q86Y79),inactive: -0.07
2,PRSS21 (UniProt Q9Y6M0),inactive: 0.063
3,PSMB3 (UniProt P49720),inactive: 0.019
4,PTPA isoform 2 (UniProt Q15257),inactive: 0.027
5,PSMD13 (UniProt Q9UNM6),inactive: -0.017
6,PTEN isoform 2 (UniProt P60484),inactive: 0.109
7,PRSS8 (UniProt Q16651),inactive: 0.038
8,PTK2 (UniProt Q05397),inactive: -0.033
9,PSME3 isoform 2 (UniProt P61289),inactive: 0.012
10,PSME2 (UniProt Q9UL46),inactive: 0.034
11,PUM2 (UniProt Q8TB72),inactive: -0.022
12,PRXL2A (UniProt Q9BRX8),inactive: 0.095
13,PRPH isoform 2 (UniProt P41219),inactive: 0.021
14,PTMS (UniProt P20962),inactive: 0.045
15,PTBP3 isoform 4 (UniProt O95758),inactive: -0.058
16,PTCD3 (UniProt Q96EY7),inactive: -0.01
17,PRR4 (UniProt Q16378),inactive: 0.181
18,PSMD4 (UniProt Q5VWC4),inactive: 0.095
19,PRR12 (UniProt Q9ULL5),inactive: -0.12
20,PRR14L (UniProt Q5THK1),inactive: 0.018
21,PUF60 isoform 2 (UniProt Q9UHX1),inactive: 0.003
22,PSMD14 (UniProt O00487),inactive: 0.007
23,PTPRJ (UniProt Q12913),inactive: -0.046
24,PSMB10 (UniProt P40306),inactive: 0.042
25,PSMB8 (UniProt P28062),inactive: -0.012
26,PSIP1 (UniProt V9GYT7),inactive: 0.123
27,PSEN2 (UniProt P49810),inactive: -0.092
28,PTPN7 isoform 3 (UniProt P35236),inactive: -0.138
29,PRRC2A (UniProt P48634),inactive: -0.014

# Compound: CNC(=O)C1=CC=CC=C1NC2=NC(=NC=C2Cl)NC3=C(C=C(C=C3)N4CCOCC4)OC
# Experiment: as above
# In short: as §1
row,Target,log2 fold change
1,PTRH1 (UniProt Q86Y79),inactive: 0.123
2,PRSS21 (UniProt Q9Y6M0),inactive: 0.009
3,PSMB3 (UniProt P49720),inactive: -0.009
4,PTPA isoform 2 (UniProt Q15257),inactive: -0.027
5,PSMD13 (UniProt Q9UNM6),inactive: -0.007
6,PTEN isoform 2 (UniProt P60484),inactive: -0.087
7,PRSS8 (UniProt Q16651),inactive: -0.008
8,PTK2 (UniProt Q05397),active: 0.54
9,PSME3 isoform 2 (UniProt P61289),inactive: -0.01
10,PSME2 (UniProt Q9UL46),inactive: -0.013
11,PUM2 (UniProt Q8TB72),inactive: -0.069
12,PRXL2A (UniProt Q9BRX8),inactive: 0.064
13,"PSMB2, A0A087WVV1",inactive: -0.024
14,PRPH isoform 2 (UniProt P41219),inactive: -0.049
15,PTMS (UniProt P20962),inactive: -0.003
16,PTBP3 isoform 4 (UniProt O95758),inactive: -0.01
17,PTCD3 (UniProt Q96EY7),inactive: 0.026
18,PRR4 (UniProt Q16378),inactive: 0.215
19,PSMD4 (UniProt Q5VWC4),inactive: 0.164
20,PRR14L (UniProt Q5THK1),inactive: 0.007
21,PUF60 isoform 2 (UniProt Q9UHX1),inactive: 0.264
22,PSMD14 (UniProt O00487),inactive: -0.003
23,PTPRJ (UniProt Q12913),inactive: -0.011
24,PSMB8 (UniProt P28062),inactive: -0.116
25,PSIP1 (UniProt V9GYT7),inactive: 0.042
26,PTPN7 isoform 3 (UniProt P35236),inactive: 0.057
27,PRRC2A (UniProt P48634),inactive: -0.001
28,PSMA7 (UniProt H0Y586),inactive: 0.164
